Literature values, collected in US7585850B2 (Adenobio N.V., priority 2005, dated 2009).
Some of these results come from one statement about several compounds together.

Conditions: in vivo; cited from earlier work

SMILES: Nc1ncnc2c1ncn2[C@@H]1O[C@H](COP(=O)(O)OP(=O)(O)OP(=O)(O)O)[C@@H](O)[C@H]1O [ATP, adenosine triphosphate]
- plasma half-life: less than 5 seconds
